Reference: PubChem BioAssay AID1688 (National Center for Advancing Translational Sciences (NCATS), 2009)
Out of some 220,000 compounds screened, about 2,400 (1.1%) were called active. Inconclusive results, whose numbers are uncertain, are shown with a selection of clear calls. Calls follow the shape of the dose curve; as a rule, active = well fitted inhibition curve with a large enough effect; inconclusive = small, poorly fitted or top-dose-only effect, or effect the other way; inactive = no such curve, though single readings can be large or run the other way. Where the call is inconclusive, the potency comes from a doubtful curve fit.

Test: qHTS Multiplex Assay to Identify Dual Action Probes in a Cell Model of Huntington: Aggregate Formation (GFP); also: nearly all actives have a fitted effect of over 60% in size
Settings: PC12 HttQ103-GFP aggregates, Acumen cytometry, 40 h; activity change, negative = inhibition: at 46.1 µM (top of the series) unless noted
Outline: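 Multiplexed with ATP-based cell death, this channel scores GFP aggregates in PC12 cells expressing inducible HTTex1-Q103-GFP. Induction used 100 nM tebufenozide; compounds were tested in concentration series.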
% is scaled to controls: 0 for no effect and ±100 for the full control effect; potency is read from the fitted curve at half-maximal effect.

Compound	Potency	activity change, negative = inhibition
CC(C)OC(=O)NCCOC(=O)Nc1cccc(Cl)c1	active: 11.2 µM	
C=CCn1c(-c2ccc(OC)cc2)nc2ccccc21	active: 11.2 µM	
COC(CNC(=O)c1ccc(N2CCc3ccccc32)c([N+](=O)[O-])c1)OC	active: 11.2 µM	
CCCN1C=CC(=C2C(=O)c3ccccc3C2=O)C=C1	inactive	
COc1ccc(/C=N/NC(=O)c2cc(C(C)(C)C)[nH]n2)cc1COc1ccc(F)cc1F	inconclusive: 20 µM [inhibitor, single point]	
CCC(C)NCC(O)COCc1ccc(Cl)cc1 (centres undefined)	inconclusive: 1 µM [activator, full curve]	
CC(C)(C)OC(=O)NCCc1nnc(S(=O)(=O)Cc2ccc(Cl)cc2Cl)o1	active: 20 µM	
COc1cccc(N2C(=O)CC(c3c[nH]c4ccccc34)C2=O)c1 (centres undefined)	inconclusive: 5.62 µM [inhibitor, partial curve, poor fit]	
O=C1Nc2c(Br)cc(Br)cc2C1(O)N1CCOCC1 (centres undefined)	inconclusive: 10 µM [inhibitor, partial curve]	
CCOc1nc(-c2ccccc2)ccc1-c1noc(COC)n1	inconclusive: 7.94 µM [inhibitor, partial curve]	
N#Cc1c(NC(=O)c2ccccc2)sc2c1CCCCC2	inactive	
Cc1nn(-c2ccccc2)c(Cl)c1/C=C(\C#N)C(=O)NC(C)C	inactive	
O=C(N/N=C/c1cc([N+](=O)[O-])ccc1O)c1cc(-c2ccccc2)nc2ccccc12	inactive	
CCOC(=O)NCc1ccc(CNC(=O)OCC)cc1		inactive: 8.18% [at 9.22 µM]
COC(=O)c1ccc(COc2ccc(-c3nnn(CC(N)=O)n3)cc2)cc1	inconclusive: 4.47 µM [activator, single point]	
O=C(Nc1ccc(OC(F)F)c(Cl)c1)c1cccc(OC(F)F)c1	active: 3.98 µM	
O=C(Cc1ccccc1)NNC(=O)c1ccc(NC(=O)c2ccccc2)cc1	inconclusive: 12.6 µM [activator, partial curve, poor fit]	
O=S(=O)(Nc1ccc(S(=O)(=O)Nc2nccs2)cc1)c1ccc2c(c1)OCCO2	inconclusive: 0.794 µM [activator, full curve]	
CCOc1cc(Cl)c(NC(=O)CC)cc1OCC	inactive	
O=C(O)CCC(=O)N1CCc2cc(S(=O)(=O)NC3CCCc4ccccc43)ccc21 (centres undefined)	inactive	
Cc1ccc(C)c(N(Cc2ccccc2F)S(C)(=O)=O)c1	inconclusive: 35.5 µM [inhibitor, single point]	
COc1ccc(S(=O)(=O)N[C@@H](Cc2ccccc2)C(=O)N2CC[C@@]3(O)CCCC[C@H]3C2)cc1	inconclusive: 35.5 µM [activator, single point]	
CC1CCCN(Cc2c(O)ccc3c(=O)c(-c4nc5ccccc5s4)c(N)oc23)C1 (centres undefined)	inconclusive: 22.4 µM [inhibitor, single point]	
O=C1/C(=C/c2ccc(O)cc2)SC(=S)N1Cc1cccnc1	inactive	
CCOc1ccc(-c2nc(CSCC(=O)N3CCN(c4cccc(OC)c4)CC3)c(C)o2)cc1	inconclusive: 11.2 µM [inhibitor, single point]	

Entries from the list above containing two or more sulfur atoms, in the order listed:
Compound	Potency	activity change, negative = inhibition
O=S(=O)(Nc1ccc(S(=O)(=O)Nc2nccs2)cc1)c1ccc2c(c1)OCCO2	inconclusive: 0.794 µM [activator, full curve]	
O=C1/C(=C/c2ccc(O)cc2)SC(=S)N1Cc1cccnc1	inactive	

(list continues)

Compound	Potency	activity change, negative = inhibition
CS(=O)(=O)Nc1ccc(C2=NN(C(=O)c3ccco3)C(c3ccccc3F)C2)cc1 (centres undefined)	inconclusive: 3.16 µM [activator, partial curve]	
C[n+]1ccc(/C=C/c2ccccc2O)c2ccccc21	inconclusive: 11.2 µM [inhibitor, single point]	
Cc1ccccc1Nc1nnc(SCC(=O)NC(=O)Nc2ccc3c(c2)OCCO3)s1	inconclusive: 0.112 µM [inhibitor, partial curve, poor fit]	
CCCCn1nnnc1SCC(=O)N(CC)CC	inconclusive: 35.5 µM [activator, single point]	
COc1cc(OC)c(-c2nnc(-c3ccc(OC)c(OC)c3OC)o2)cc1OC	inconclusive: 11.2 µM [activator, partial curve]	
CCOC(=O)c1cc(C#N)c(N2CCN(c3ccccn3)CC2)nc1-c1ccccc1	inconclusive: 17.8 µM [inhibitor, single point]	
N#C/C(=C(/O)CN1CCOCC1)c1nc(-c2ccccc2)cs1	inactive	
Cc1cc(C)c(S(=O)(=O)c2ccccc2)c(Cl)n1	inconclusive: 28.2 µM [inhibitor, single point]	
Cc1ccc(C)c(S(=O)(=O)C(C#N)c2nc3ccccc3nc2N2CCCC2)c1 (centres undefined)	inconclusive: 35.5 µM [inhibitor, single point]	
COC(=O)c1ccccc1NC(=O)C1CCCN(S(=O)(=O)c2ccc(OC)cc2)C1 (centres undefined)	inconclusive: 12.6 µM [inhibitor, single point]	
COc1ccccc1N1CCN(C(c2ccc(N(C)C)cc2)c2nnnn2CCc2ccccc2)CC1 (centres undefined)	inconclusive: 20 µM [inhibitor, partial curve]	
O=C(O)C1CCN(C(=O)c2ccccc2Cl)CC1	inactive	
Cn1nc(-c2ccc(Cl)cc2)c2cc(C(=O)NC3CC3)sc21	inactive	
CCOC(=O)C1CCCN(C(=O)/C=C/c2ccc(Cl)cc2)C1 (centres undefined)	inconclusive: 0.355 µM [activator, full curve, poor fit]	
Cc1ccc(C2=C(c3ccc([N+](=O)[O-])cc3)C(=O)OC2)cc1C	inconclusive: 4.47 µM [activator, single point]	
O=S(=O)(Cc1cc(-c2ccc(Cl)cc2)no1)c1ccccc1	inconclusive: 1.26 µM [inhibitor, single point]	
O=C(O)CCCN=CC1=C(O)CNC1=O		inconclusive: 32.7% [activator]
CN(C)c1nc(N)nc(/C(C#N)=C/C2CC3C=CC2C3)n1 (centres undefined)	inconclusive: 1.26 µM [inhibitor, single point]	
Cc1ccc(-c2csc(NC(=O)c3ccc(C)o3)n2)cc1	inconclusive: 35.5 µM [inhibitor, single point]	
CCc1nnc(N2CCN(c3ncnc4c3oc3ccccc34)CC2)s1	inconclusive: 25.1 µM [inhibitor, single point]	
CCOC(=O)c1sc(NC(=O)CSC(=S)N2CCN(C)CC2)nc1C		inactive: 8.28% [at 9.22 µM]
S=c1[nH]nc(-c2ccc(Cl)cc2)n1-c1cccnc1		inactive: -13.2% [at 9.22 µM]
CCOc1ccc(-c2nc(-c3cccnc3)no2)cc1	inactive	
COc1ccc(NC2C=CS(=O)(=O)C2)c(OC)c1 (centres undefined)	inactive	
O=C(Nc1ccc2c(c1)OCCO2)c1ccc(S(=O)(=O)N2CCCCC2)cc1	inconclusive: 22.4 µM [inhibitor, partial curve]	

2 records drawn at random from the list so far:
Compound	Potency	activity change, negative = inhibition
Cc1ccc(C)c(S(=O)(=O)C(C#N)c2nc3ccccc3nc2N2CCCC2)c1 (centres undefined)	inconclusive: 35.5 µM [inhibitor, single point]	
O=C(O)C1CCN(C(=O)c2ccccc2Cl)CC1	inactive	

The list continues:

Compound	Potency	activity change, negative = inhibition
COC(=O)c1ccc(C)c(NC(=O)CCc2ccc(OC)cc2)c1	inactive	
CCOC(=O)c1[nH]c2ccc(C)cc2c1NC(=O)CN1CCCCC1	inconclusive: 5.62 µM [inhibitor, single point]	
Cn1c(NCc2cc(Br)ccc2O)nc2ccccc21	inconclusive: 35.5 µM [inhibitor, single point]	
CCOc1cc(/C=N/NC(=O)c2cccnc2)cc(Br)c1OCC(N)=O	inconclusive: 2.82 µM [inhibitor, single point]	
CCN(CC)CCNc1c2c(c(C#N)c3nc4ccccc4n13)CCCC2	inconclusive: 7.94 µM [activator, partial curve, poor fit]	
COCCn1c(=O)[nH]c2cc(C(=O)NCCCN3CCN(c4ccc(F)cc4)CC3)ccc2c1=O	inconclusive: 17.8 µM [inhibitor, single point]	
CCC(C)Nc1ncnc2c1cnn2Cc1ccc(Cl)cc1 (centres undefined)	active: 25.1 µM	
CCC(CC)NC(=O)c1cccc(Oc2ccccc2)c1	inactive	
Cc1ccc2cc(CN(Cc3ccco3)C(=O)NC3CCCCC3)c(=O)[nH]c2c1C	inconclusive: 15.8 µM [inhibitor, single point]	
O=C(CSc1nc(Nc2ccccc2)nc(N2CCOCC2)n1)N1CCCC1	inactive	
COC(=O)c1ccc(N2C(=O)CC(N3CCN(C(=O)c4ccco4)CC3)C2=O)cc1 (centres undefined)	inactive	
Cc1ccccc1C(=O)Nc1ccc2c(c1)OCO2	inactive	
COc1cccc(C2C(C(=O)c3cccs3)=C(O)C(=O)N2CCCn2ccnc2)c1OC (centres undefined)	inconclusive: 3.98 µM [inhibitor, single point]	
CSC1=C(C#N)C(c2ccc(Cl)cc2)C2=C(CC(C)(C)CC2=O)N1 (centres undefined)	inconclusive: 35.5 µM [inhibitor, single point]	
Cc1nnc(SCC(=O)OC2CC(C)CCC2C(C)C)[nH]c1=O (centres undefined)	inactive	
Cc1c(C(=O)O)[nH]c2ccc([N+](=O)[O-])cc12	inactive	
COc1ccc(C(=O)NNC(=S)NC(=O)C(C)(C)C)cc1	inconclusive: 35.5 µM [inhibitor, single point]	
Cn1c(=O)n(C/C=C/c2ccccc2)c(=O)c2c1nc1n2CCCN1c1ccc(F)cc1	inconclusive: 35.5 µM [inhibitor, single point]	
Cc1ccc2[nH]c(=O)c(CNC(C)(C)C)cc2c1	inactive	
O=C1CSC(c2ccco2)N1 (centres undefined)	inactive	
C#CCn1c(S(=O)(=O)Cc2ccc(F)cc2)nc(-c2ccccc2)c1-c1ccccc1	inconclusive: 35.5 µM [inhibitor, partial curve]	
CN1CCN(C(CC(=O)Nc2cccc(O)c2)C(=O)O)CC1 (centres undefined)	inactive	
CCc1ccccc1NC(=O)C1C(c2ccccc2)C1(Cl)Cl (centres undefined)	inconclusive: 35.5 µM [inhibitor, single point]	
CCc1nc(Nc2ccccc2)c2oc3ccccc3c2n1	inconclusive: 10 µM [inhibitor, partial curve]	

Two entries from above, set out differently.

| Compound | Potency | activity change, negative = inhibition |
| --- | --- | --- |
| Cc1ccccc1C(=O)Nc1ccc2c(c1)OCO2 | inactive |  |
| COc1cccc(C2C(C(=O)c3cccs3)=C(O)C(=O)N2CCCn2ccnc2)c1OC (centres undefined) | inconclusive: 3.98 µM [inhibitor, single point] |  |
